Results as given in patent EP4496786B1, “CRYSTALLINE FORM OF 2-ACRYLAMIDO-2-METHYLPROPANESULPHONIC ACID POTASSIUM SALT” (SNF Group, priority 2023, dated 2024).

Test: Corrosivity of different forms of ATBS on carbon steel
Conditions: for Final weight (g) t+15 days: carbon steel plate coated with 20 g of product, oven at 50°C, 2 weeks; for % loss: weight loss of carbon steel plate, 50°C, t+15 days

Row | SMILES | Final weight (g) t+15 days (potassium salt) [g] | % loss (potassium salt) [%] | Final weight (g) t+15 days [g] | % loss [%]
1 | C=CC(=O)NC(C)(C)CS(=O)(=O)[O-].[K+] [ATBS.K CE-AK2e, 2-acrylamido-2-methylpropanesulphonic acid potassium salt] | 9.0219 | 4.14 |  | 
2 | C=CC(=O)NC(C)(C)CS(=O)(=O)[O-].[K+] [ATBS.K AK2a, 2-acrylamido-2-methylpropanesulphonic acid potassium salt] | 9.3526 | 1.79 |  | 
3 | C=CC(=O)NC(C)(C)CS(=O)(=O)O [ATBS AH, 2-acrylamido-2-methylpropanesulphonic acid] |  |  | 8.6582 | 7.46
4 | C=CC(=O)NC(C)(C)CS(=O)(=O)[O-].[K+] [ATBS.K CE-AK2c, 2-acrylamido-2-methylpropanesulphonic acid potassium salt] | 9.1274 | 3.77 |  | 
5 | C=CC(=O)NC(C)(C)CS(=O)(=O)[O-].[K+] [ATBS.K CE-AK2d, 2-acrylamido-2-methylpropanesulphonic acid potassium salt] | 9.1210 | 2.44 |  | 
